{"sequences": {"note": "By UniProt entry, the sequences of proteins in these tests, tags left out. Residues count along the entry.", "UniProt Q9BXM7, residues 78-581": "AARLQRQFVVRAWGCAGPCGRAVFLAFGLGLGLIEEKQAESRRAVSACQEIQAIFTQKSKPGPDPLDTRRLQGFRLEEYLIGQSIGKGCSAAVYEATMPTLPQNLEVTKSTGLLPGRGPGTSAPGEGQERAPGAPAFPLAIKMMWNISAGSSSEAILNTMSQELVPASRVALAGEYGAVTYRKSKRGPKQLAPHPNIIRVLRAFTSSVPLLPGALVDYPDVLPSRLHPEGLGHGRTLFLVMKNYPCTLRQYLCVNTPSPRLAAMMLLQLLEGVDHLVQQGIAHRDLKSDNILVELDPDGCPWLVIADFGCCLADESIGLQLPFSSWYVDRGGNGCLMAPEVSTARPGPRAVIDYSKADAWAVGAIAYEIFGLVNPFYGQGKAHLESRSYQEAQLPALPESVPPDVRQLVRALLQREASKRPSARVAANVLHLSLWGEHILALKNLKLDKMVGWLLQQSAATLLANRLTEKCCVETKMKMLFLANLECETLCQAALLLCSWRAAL"}, "source": "paper PMC7807703", "target": "T1, STOML2-Flag (Stomatin-like protein 2 with a Flag tag) (human) (UniProt Q9UJZ1)", "T1 sequence": "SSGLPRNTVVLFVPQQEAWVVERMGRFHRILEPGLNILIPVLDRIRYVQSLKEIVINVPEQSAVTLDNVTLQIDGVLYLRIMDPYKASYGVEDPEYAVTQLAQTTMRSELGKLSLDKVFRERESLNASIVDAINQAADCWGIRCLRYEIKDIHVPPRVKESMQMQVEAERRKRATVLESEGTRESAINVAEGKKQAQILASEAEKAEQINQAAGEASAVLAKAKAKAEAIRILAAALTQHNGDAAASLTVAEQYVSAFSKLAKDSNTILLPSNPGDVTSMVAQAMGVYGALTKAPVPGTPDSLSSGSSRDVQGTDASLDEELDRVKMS", "assay": "affinity purification with mass spectrometry; SMMC-7721 cells transfected with STOML2-Flag (control: pENTER), treated with CCCP (10 uM), lysed in RIPA buffer; Flag antibody and protein A/G agarose beads; SDS-PAGE, silver stain, specific bands analysed by MALDI TOF", "note": "Results are given in words; binding and its absence hold for the method and conditions named. Binding seen in cells or lysates may run through a third protein. Here binding means that the protein was enriched with, or labelled near, the bait; the list need not be complete. Sequences can lack the tags named with a protein."}
{"substance": "PTEN-induced putative kinase 1 (PINK1) (from UniProt Q9BXM7 78-581)", "values": [{"measurement": "binding", "value": "binds"}]}
